# Screening data

Data taken from PubChem BioAssay AID1159506, deposited by NCATS (2015).

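Luminescence from an EWS-FLI1 target-promoter (NR0B1) reporter, set against a CMV-promoter reporter, two days after silencing single genes in TC32 Ewing sarcoma cells.
Each siRNA was applied at 20 nM.
A z-score of the log NR0B1-over-CMV signal, less the median of siRNAs with the same seed; more negative means a stronger specific loss of the NR0B1 reporter.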

This is part of the screen; most of the strongest results are not listed here.
Sequences are the guide (antisense) strand, without overhang.

strand,gene,seed-corrected z-score
UCUUUUUCGAGCGAUGGGC,SLC39A3,-0.3897
UAAGCGGUAUAGAAGGACC,QSOX1,-0.3532
UGAACGAUCCCUUUAGCUC,CFAP73,0.09536
UCUAUAAAUAGGACCCUGC,TMLHE,-0.7791
UCUAUUAGCAUGUCAGGCC,XPO5,-0.2233
AACUCGACCAAUAUUCUGC,SPATA31D1,-0.2069
AACUGGUACAUCUUCUGCG,CDH22,0.3202
UUGUUCUAAACUUUGAAGG,B3GNT5,0.1886
UAACUGACCCUUUAAGUCC,KIFC1,0.07575
UGUUUGUCCAGCAAAAACC,PPP2R3C,-1.259
UCCUCGGUAUCUAAUUUCC,SLC25A30,0.2277
UGUUUGAAGUCGAAGAGGG,MBD1,-0.03207
UCAUAUCCCUGAGCAAUUG,NNT,-0.5499
UACAUUUUAAGUCUGGGAG,DUOXA2,1.128
UUACAGAUCAACACGAUGA,OR9G1,0.799
AUAAUCUUUAGUCUUUGGG,ATP6V1E1,-0.9372
AUAAUAAAGAGGAAGUUAC,OR11H12,0.9037
UUUGAUACAUAACUAGCUC,RSPO2,0.1177
UUCAGGGUCAUGUAGGAGU,FOXA3,0.02665
AAAAUUGCAGGUGCCGUCG,IMPA2,0.1901
AGAAUUGUCAGGGAGUGUC,FAM19A1,-1.813
UUGGGUUAGCAAUCAAAGC,SLC45A2,1.711
UACAUGUCCACGUUAAAGG,GPS1,-1.165
AAAGGACUUCGGGCAGUGU,ZNF575,1.557
CUCAGACUCUCCAUGGUUC,SYNDIG1L,-0.2426
UCAUAGGUCAUGGAAAGAC,LOC642980,-0.02428
UCUGUGGAAUAUGUCGUCG,NRG3,0.5131
AACUGUAAAGCAUUCAUGC,CELF2,0.5241
UAAGUGGUAACCUCACUGG,ZCCHC13,-0.1746
ACUUUAAUAAGCUUCUGCG,MRPL32,0.8453
AACCAAGUCUCUCGUAUGC,GADD45B,0.1102
UCAUCUAUAUUGCAUAAGG,L1TD1,1.089
UGUGGUACCAGAAUGAACA,STYX,-0.6912
UCCAAUUACAGAAAACAGC,C10orf128,-0.1571
AAAUCUGUAAUGUUGAGUG,ZNF514,-1.804
AGUCAGAUCAGGAAGCAUG,AMELX,1.651
UCUGGGUCAAGCGUGCUUU,VPS37B,-0.949
UUUCGAUCUAGCGAUGGAG,INPP4A,-0.7717
UACAUAUCCUGUUAGCCGC,ACTN2,-0.4033
UAUCCAUAUAUAGAGGUCG,SIDT1,0.451
UUGGGUUACAUUUCUCAGC,MAGEB10,0.04446
UCAAGUACAAAACUGCAUC,PNPLA1,-0.6199

4 of the entries, repeated:

| strand | gene | seed-corrected z-score |
|---|---|---|
| `UCUGUGGAAUAUGUCGUCG` | NRG3 | 0.5131 |
| `AUAAUAAAGAGGAAGUUAC` | OR11H12 | 0.9037 |
| `UCAUAGGUCAUGGAAAGAC` | LOC642980 | -0.02428 |
| `AAAUCUGUAAUGUUGAGUG` | ZNF514 | -1.804 |